The structures given here were assigned with low confidence; some may be wrong.
Key:
[1] = molecular target: P2X2R (Homo sapiens, UniProt Q9UBL9); test: Receptor-mediated calcium entrance assay (Calcium Assay), P2X2R
[2] = molecular target: P2X7R (Homo sapiens, UniProt Q99572); test: Yo-Pro-1 uptake assay (Yo-Pro-1 Assay) in HEK-293 cells transiently transfected with P2X7R; details: for Percentage of activity remains in the presence of the compound at 5 μM, P2X7R (Yo-Pro-1 Assay): 30 μM bzATP stimulus, reading 1 hour after stimulation, transfected HEK-293 cells; for IC50: read-out: Estimated IC50, HEK-293 cells transiently transfected with P2X7R, 30 μM bzATP as stimulus, readings 1 hour after stimulation, estimated from dose-response curves
[3] = molecular target: Human P2X1 receptor (P2X1R) (Homo sapiens, UniProt P51575); test: Receptor-mediated calcium entrance assay (Calcium Assay), P2X1R transfected HEK-293 cells; details: ATP 20 μM stimulus
Text: (§1) Human P2X1 receptor (P2X1R) is a member of P2X family. […] Thus, the calcium assay was used. In the calcium assay, P2X receptor activation leads to opening of ion channels, which increases intracellular calcium concentration. The increased intracellular calcium concentration can be detected by a calcium indicator dye such as Fluo-4 or Fluo-8. Molecular Probes™ Fluo-4, AM (Cat. No. F14201 from Fisher Scientific) was used in the assay. The procedures were similar as described in the Yo-Pro-1 assay until day 4. The construct of P2X1R for transient transfection to HEK-293 cells was the courtesy from Dr. Richard J. Evans laboratory (J. Biol. Chem. 279:9043-9055). […] At this point, the base level of fluorescence was obtained through the microplate reading—the base microplate reading for this assay. […] Activation of P2X1R opened the channel to allow influx of calcium, which was represented by fluorescence increases that were measured by the microplate device with excitation at 475 nm and emission wavelength in the range of 500-550 nm. The data were analyzed the same way as described before: The result of each well was first normalized by its corresponding base microplate reading. […]

By UniProt entry, the sequences of proteins in these tests, tags left out.
UniProt Q9UBL9, whole entry: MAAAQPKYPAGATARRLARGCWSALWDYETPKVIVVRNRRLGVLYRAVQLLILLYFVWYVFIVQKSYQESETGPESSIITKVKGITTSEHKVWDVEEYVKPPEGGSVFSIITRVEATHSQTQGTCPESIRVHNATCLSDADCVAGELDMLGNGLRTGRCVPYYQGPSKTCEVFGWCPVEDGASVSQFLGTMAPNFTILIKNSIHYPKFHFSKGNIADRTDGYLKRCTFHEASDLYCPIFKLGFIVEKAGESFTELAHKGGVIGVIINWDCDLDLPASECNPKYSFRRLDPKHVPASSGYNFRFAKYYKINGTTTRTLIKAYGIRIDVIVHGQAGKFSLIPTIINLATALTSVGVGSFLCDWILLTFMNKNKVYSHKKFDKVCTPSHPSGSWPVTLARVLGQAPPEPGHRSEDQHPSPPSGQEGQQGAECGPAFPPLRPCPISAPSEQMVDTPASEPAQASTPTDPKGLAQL
UniProt Q99572, whole entry: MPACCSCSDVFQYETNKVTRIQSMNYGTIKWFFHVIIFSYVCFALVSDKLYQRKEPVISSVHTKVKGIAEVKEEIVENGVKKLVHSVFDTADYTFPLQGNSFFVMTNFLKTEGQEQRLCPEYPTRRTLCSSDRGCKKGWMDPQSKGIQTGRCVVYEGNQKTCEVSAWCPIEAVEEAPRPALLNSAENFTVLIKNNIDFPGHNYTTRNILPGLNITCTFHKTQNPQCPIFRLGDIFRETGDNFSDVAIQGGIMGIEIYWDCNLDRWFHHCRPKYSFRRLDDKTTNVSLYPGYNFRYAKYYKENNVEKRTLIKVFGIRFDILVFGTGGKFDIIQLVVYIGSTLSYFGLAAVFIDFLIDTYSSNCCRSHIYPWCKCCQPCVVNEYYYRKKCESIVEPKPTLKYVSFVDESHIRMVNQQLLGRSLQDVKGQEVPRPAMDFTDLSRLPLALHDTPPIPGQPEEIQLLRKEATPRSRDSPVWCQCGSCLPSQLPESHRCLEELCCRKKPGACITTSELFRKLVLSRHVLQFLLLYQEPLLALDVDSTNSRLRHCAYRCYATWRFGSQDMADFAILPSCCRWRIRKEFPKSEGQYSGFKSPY
UniProt P51575, whole entry: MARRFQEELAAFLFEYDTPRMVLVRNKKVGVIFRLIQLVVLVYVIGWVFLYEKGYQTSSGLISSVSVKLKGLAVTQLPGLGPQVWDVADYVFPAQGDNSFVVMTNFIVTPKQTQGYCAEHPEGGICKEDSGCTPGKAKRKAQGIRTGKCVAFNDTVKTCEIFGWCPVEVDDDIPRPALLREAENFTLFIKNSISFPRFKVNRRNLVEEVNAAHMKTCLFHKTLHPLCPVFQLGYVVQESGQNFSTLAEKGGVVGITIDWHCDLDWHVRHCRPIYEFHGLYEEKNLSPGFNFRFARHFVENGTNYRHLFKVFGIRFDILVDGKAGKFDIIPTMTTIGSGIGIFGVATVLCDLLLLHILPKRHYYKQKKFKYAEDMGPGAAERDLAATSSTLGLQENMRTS
UniProt Q99571, whole entry: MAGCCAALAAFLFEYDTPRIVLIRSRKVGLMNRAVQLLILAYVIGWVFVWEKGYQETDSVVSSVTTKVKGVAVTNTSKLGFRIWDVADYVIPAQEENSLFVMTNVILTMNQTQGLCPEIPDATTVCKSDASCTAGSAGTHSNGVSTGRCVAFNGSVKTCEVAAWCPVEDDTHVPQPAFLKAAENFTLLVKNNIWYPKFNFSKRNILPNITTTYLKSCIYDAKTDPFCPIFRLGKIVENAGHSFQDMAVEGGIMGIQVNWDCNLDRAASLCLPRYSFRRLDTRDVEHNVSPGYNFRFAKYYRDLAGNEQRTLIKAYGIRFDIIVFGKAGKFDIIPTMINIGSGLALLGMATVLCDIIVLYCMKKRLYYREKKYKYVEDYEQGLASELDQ

[4] = molecular target: Human P2X2 receptor (P2X2R) (Homo sapiens, UniProt Q9UBL9); test: Yo-Pro-1 uptake assay, P2X2R transfected HEK-293 cells; details: 5 μM ATP stimulus
Text: Yo-Pro-1 Iodide (Cat. No Y3603 from Fisher Scientific) is a fluorescent DNA-binding dye with a MW of 629 Da. This method is based upon the Yo-Pro-1 entrance to cells through the dilated or “large pore form” of P2X7R and its binding to intracellular DNA whereby it increases its fluorescence intensity (J. Pharmacol. Exp. Ther. 308, 1053-1061). The dye has an absorption spectrum compatible with excitation at 488 nm by argon laser sources and its emission wavelength is in the range of 515-575 nm. This Yo-Pro-1 uptake was measured in HEK-293 cells transiently transfected with P2X7R (J. Biol. Chem. 290, 7930-7942). In Brief, HEK-293 cells were seeded in growth medium at approximately 20,000 cells/well in a 96-well plate on day 1. Transfection was performed on day 2 using Lipofectamine 2000 with the P2X7R DNA plasmid at the concentration of 1.7 μg/ml. The transfection solution was replaced with the growth medium 4 hours later. Fluorescent assays were conducted on day 4. […] Fluorescence increases were measured every 30 minutes in a microplate device with excitation at 475 nm and emission wavelength in the range of 500-550 nm. […]
Data used for analysis were from microplate readings 1 hour after bzATP stimulation. The result of each well was first normalized by its corresponding base microplate reading. The base microplate reading was the first reading right after all components were added. […]

[5] = molecular target: Human P2X4 receptor (P2X4R) (Homo sapiens, UniProt Q99571); test: Receptor-mediated calcium entrance assay (Calcium Assay), P2X4R transfected HEK-293 cells; details: 1 mM ATP stimulus
Text: as §1

| Percentage of activity remains in the presence of the compound at 5 μM, P2X2R (Calcium Assay) [1] [%] | Percentage of activity remains in the presence of the compound at 5 μM, P2X7R (Yo-Pro-1 Assay) [2] [%] | IC50 [2] [nM] | Percentage of activity remains in the presence of the compound at 5 μM, P2X1R (Calcium Assay) [3] [%] | Percentage of activity remains in the presence of the compound at 5 μM, P2X2R (Yo-Pro-1 Assay) [4] [%] | Percentage of activity remains in the presence of the compound at 5 μM, P2X4R (Calcium Assay) [5] [%] | Compound |
| --- | --- | --- | --- | --- | --- | --- |
| 97.0 | −11.2 | 400 | 54.4 | 50.3 | 75.1 | O=C(NCCc1ccccc1)C1CCCN(S(=O)(=O)c2ccc(N3CCCCC3)cc2)C1 (single isomer, unassigned) [#19] |
| 103.2 | 0.3 | 3000 | 60.5 | 68.5 | 67.3 | O=C(NCCc1ccccc1)C1CCCN(S(=O)(=O)c2ccc(N3CCCCC3)cc2)C1 (single isomer, unassigned) [#26] |
